Counter-ions that a name gives are not always drawn. The list shows a part of the results. Hit calls seldom repeat between salt and free forms of one compound.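 In K562 cells expressing nanoluciferase-fused kinases, luminescence was recorded at 4 h intervals between 2 and 18 h, normalized as percent of control with DMSO at 100% and a positive control at 0%. A significant (2 sigma) signal drop marks a time point as decreased. The authors' rule for a hit is not shown and takes in more than the number of time points.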
target: PDK1 (UniProt Q15118); assay: kinase-Nluc reporter destabilization hit call (1 = scored as downregulated) (binary); higher = compound decreases kinase abundance; details: K562; 2-18 h

Protein sequences, listed by entry. Tags and fused reporters are not part of them. Lines headed by an entry give the natural chain unless they say otherwise; changes in a name come on top.
UniProt Q15118, whole entry, looked up: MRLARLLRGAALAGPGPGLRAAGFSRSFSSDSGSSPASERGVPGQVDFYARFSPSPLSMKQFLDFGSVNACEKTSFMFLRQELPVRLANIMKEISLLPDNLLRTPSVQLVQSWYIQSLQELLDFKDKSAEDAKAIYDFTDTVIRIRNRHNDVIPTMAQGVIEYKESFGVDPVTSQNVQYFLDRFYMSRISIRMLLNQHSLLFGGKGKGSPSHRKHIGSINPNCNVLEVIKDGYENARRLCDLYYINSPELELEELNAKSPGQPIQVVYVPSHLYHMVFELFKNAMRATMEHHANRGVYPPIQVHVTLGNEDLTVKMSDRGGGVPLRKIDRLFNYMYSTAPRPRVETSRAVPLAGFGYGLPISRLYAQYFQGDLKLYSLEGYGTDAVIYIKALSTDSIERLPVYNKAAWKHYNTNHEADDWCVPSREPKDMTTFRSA
UniProt O15530: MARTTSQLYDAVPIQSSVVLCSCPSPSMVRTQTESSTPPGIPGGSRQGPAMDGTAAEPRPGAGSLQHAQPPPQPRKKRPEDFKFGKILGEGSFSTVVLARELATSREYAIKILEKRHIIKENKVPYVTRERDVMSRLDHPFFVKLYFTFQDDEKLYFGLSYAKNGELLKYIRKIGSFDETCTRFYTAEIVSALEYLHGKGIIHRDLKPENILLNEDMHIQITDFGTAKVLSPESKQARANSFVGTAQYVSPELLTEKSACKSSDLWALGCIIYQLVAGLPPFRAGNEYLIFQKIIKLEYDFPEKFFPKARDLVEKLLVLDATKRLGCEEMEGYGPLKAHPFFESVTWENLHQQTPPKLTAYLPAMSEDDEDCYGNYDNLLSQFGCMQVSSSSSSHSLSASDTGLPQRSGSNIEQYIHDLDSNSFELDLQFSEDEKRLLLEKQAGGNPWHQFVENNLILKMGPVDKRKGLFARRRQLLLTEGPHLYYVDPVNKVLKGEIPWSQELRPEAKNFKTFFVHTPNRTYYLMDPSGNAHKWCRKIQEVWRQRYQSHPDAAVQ

Structure (SMILES) | kinase-Nluc reporter destabilization hit call
Cc1cccc(-c2[nH]c(C(C)(C)C)nc2-c2ccc3c(c2)OCO3)n1 (2.5 µM) | inactive: 0
Cc1cccc(Cn2nc(C)c3c(NC(=O)c4csc5c(N)ncnc45)cccc32)n1 (10 µM) | inactive: 0
CC[C@@H]1CN(C(=O)NCC(F)(F)F)C[C@@H]1c1cnc2cnc3[nH]ccc3n12 [Upadacitinib] (10 µM) | inactive: 0
CNS(=O)(=O)C[C@H]1CC[C@H](N(C)c2[nH]cnc3nccc2-3)CC1 [Oclacitinib (maleate)] (10 µM) | inactive: 0
COc1cc(-c2cnc(N)c(-c3ccc(NC(=O)c4cn(CC5CCOCC5)cc(-c5ccc(C)cn5)c4=O)cc3F)c2)ccc1OC[C@H]1COCCO1 [DS-1205b (free base)] (10 µM) | inactive: 0

target: PDPK1 (UniProt O15530); assay: as above; details: K562; 2-18 h

Structure (SMILES) | kinase-Nluc reporter destabilization hit call
C=CC(=O)N1CCC[C@@H](n2c(=O)n(-c3ccc(Oc4ccccc4)cc3)c3c(N)nccc32)C1 [Tolebrutinib] (10 µM) | inactive: 0
C[C@]1(O)C[C@@](N)(c2ccc(-c3nc4n(c3-c3ccccc3)COc3ccncc3-4)cc2)C1 [TAS-117 (hydrochloride)] (10 µM) | inactive: 0
CCOC(=O)C1=C[C@]2(CC)CCCN3CCc4c(n1c1ccccc41)[C@@H]32 [Vinpocetine] (10 µM) | inactive: 0
CC(C)(C)NS(=O)(=O)c1cncc(-c2cc(F)c3nc(N)nn3c2)c1 (10 µM) | inactive: 0
CC(C)(C)c1ccc(C(=O)Nc2cn3cc(-n4ccnc4)ccc3n2)cc1 (10 µM) | inactive: 0
Cc1nc(NC(=O)N2CCC[C@H]2C(N)=O)sc1-c1csc(C(C)(C)C)n1 (10 µM) | inactive: 0
N#Cc1cn([C@@H]2O[C@H](CO)[C@@H](O)[C@H]2O)c2nc[nH]c(=O)c12 [Jaspamycin] (10 µM) | inactive: 0
Cc1ccc(-c2csc(Cn3nc(CC4OCCCO4)c4ccccc4c3=O)n2)cc1 (10 µM) | inactive: 0
CNC(=O)c1c(C)oc2cc(Oc3ncnc4cc(OC)c(OC)cc34)ccc12 [Fruquintinib] (10 µM) | inactive: 0
O=S(=O)(N=Cc1c(O)ccc2ccccc12)c1cccs1 (10 µM) | inactive: 0
NC(=O)c1cccc2c(N[C@H](CN3CCC3)c3ccc(Cl)c(C(F)(F)F)c3)ncnc12 (10 µM) | inactive: 0
CN1CCC(c2ccccc2CC(C)(C)Nc2nc(N3CCOCC3)nc(-n3c(S(C)(=O)=O)nc4ccccc43)n2)CC1 (10 µM) | inactive: 0
O=c1ccc2cc(O)c(O)cc2o1 [Esculetin] (10 µM) | inactive: 0
O=C(Nc1nc2cccc(-c3ccc(CN4CCS(=O)(=O)CC4)cc3)n2n1)C1CC1 [Filgotinib] (2.5 µM) | inactive: 0
CC(C)(O)c1cc2nc(-c3cnc(N)nc3)nc(N3CCOCC3)c2s1 (2.5 µM) | inactive: 0
Cn1cc(-c2ccc3ncc(Cc4ccc5ncccc5c4)n3n2)cn1 (10 µM) | inactive: 0
CC(=O)c1cc(O)ccc1O [2,5-Dihydroxyacetophenone] (10 µM) | inactive: 0
COc1ccc(COc2cc3oc(=O)c4cc(C(C)O)ccc4c3cc2OC)cc1 (configuration not stated) [Palomid 529] (2.5 µM) | inactive: 0
O=C(CC(c1ccccc1)C(C(=O)O)C(=O)O)c1ccc(C(F)(F)F)cc1 (configuration not stated) (10 µM) | inactive: 0
CC(C)[C@H](CO)Nc1nc(Nc2ccc(C(=O)O)c(Cl)c2)c2ncn(C(C)C)c2n1 [Purvalanol B] (10 µM) | inactive: 0
COc1cc2nccc(Oc3ccc(NC(=O)Nc4ccc(F)cc4F)c(F)c3)c2cc1OC (10 µM) | inactive: 0
N#C/C(=C\c1ccc[nH]1)c1ccc(Cl)c(Cl)c1 (2.5 µM) | inactive: 0
O=c1cc(-c2ccc(O)cc2)oc2cc(O)c(O)c(O)c12 [Scutellarein] (10 µM) | inactive: 0
CC(C)n1nc(C#Cc2ccccc2)c2c(N)ncnc21 (10 µM) | inactive: 0
O=C(N=c1sccn1Cc1ccccc1)c1c[nH]c2ncccc12 (10 µM) | inactive: 0
CC(C)=C/C=C1\O[C@@H]2CC(C)=CC(=O)[C@@H]2[C@]1(C)O [Bisabolangelone] (10 µM) | inactive: 0
COc1ccc(C2CC(c3ccc(Cl)cc3)=NN2c2nc(-c3ccncc3)cs2)cc1 (configuration not stated) [mTOR inhibitor-8] (10 µM) | inactive: 0

No new results follow: entries from further up.
Structure (SMILES) | kinase-Nluc reporter destabilization hit call
C=CC(=O)N1CCC[C@@H](n2c(=O)n(-c3ccc(Oc4ccccc4)cc3)c3c(N)nccc32)C1 [Tolebrutinib] (10 µM) | inactive: 0
C[C@]1(O)C[C@@](N)(c2ccc(-c3nc4n(c3-c3ccccc3)COc3ccncc3-4)cc2)C1 [TAS-117 (hydrochloride)] (10 µM) | inactive: 0
